Results: PubChem BioAssay AID2685 (National Center for Advancing Translational Sciences (NCATS), 2010)
The other results are listed elsewhere or left out. Shown are side measurements of this screen, not its main read-out; they come without a call. Compounds called inactive in the main read-out are mostly missing here. The note in brackets gives the kind of curve behind each potency; many fits are weak.

Assay: qHTS Assay for Lipid Storage Modulators in Drosophila S3 Cells;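 on cell number change: cells counted by Cell Tracker Red CMTPX staining in the red channel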
Settings: BODIPY lipid droplet fluorescence, 18-24 h; for cell number change: measured here: cell count max response, cells fed with added oleic acid
Summary of the method: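 Drosophila S3 cells got compounds at several concentrations plus oleic acid (400 uM solution). Laser-scanning cytometry with 488 nm excitation read lipid droplets at 500-530 nm and cells at 575-640 nm. Percent activity was relative to 20 uM Triacsin C.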

[1] = measured here: lipid fluorescence (Fed channel) AC50, cells fed with added oleic acid
[2] = measured here: cell number channel AC50, cells fed with added oleic acid

SMILES | cell number change [%] | AC50 [1] | AC50 [2]
Cn1ncc(C#N)c1NC(=O)C1CC(c2ccc(Cl)c(Cl)c2)=NO1 (stereo not given) | 2.43 | 16.4 µM [rising, single point] | –
Cc1c(Cl)cccc1NC(=O)CSc1nnc(C)n1CC1CCCO1 (stereo not given) | -2.63 | 35.5 µM [falling, single point] | –
CCOC(=O)C1C(=O)N(C(=O)c2cncc(Br)c2)CC1c1ccccc1 (stereo not given) | 3.95 | 6.51 µM [falling, partial curve, poor fit] | –
CCOC(=O)c1cc(NC(=O)c2c(C)noc2C)cc(C(=O)OCC)c1 | 14.3 | 2.31 µM [rising, partial curve] | –
COc1cc(CNCCO)cc(Br)c1OCc1ccccc1 | -6.37 | – | –
O=C(NCCc1ccc(Cl)cc1)C1CCC(=O)N(C2CCCCCC2)C1 (stereo not given) | -7.63 | – | 4.61 µM [rising, single point]
CCOc1ccccc1C(=O)N[C@H](C(=O)Nc1nc2c(s1)CCCC2)C(C)C | 21.8 | 0.103 µM [rising, full curve, poor fit] | –
CCOCc1cc(=O)[nH]c(SC)n1 | -0.195 | 0.58 µM [falling, single point] | –
C/C(=N\NC(=O)c1ccc(COc2ccccc2)cc1)c1ccncc1 | -41.4 | 0.231 µM [falling, full curve, poor fit] | 29.1 µM [falling, single point]
Cc1ccc(Nc2nc(Cl)nc(NC3CCCCC3)n2)cc1 | -44 | – | 14.6 µM [falling, single point]
Cc1c(NC(=O)Nc2cccc(F)c2)c(=O)n(-c2ccccc2)n1C | 22.3 | 23.1 µM [rising, single point] | –
Cc1nn(Cc2ccc([N+](=O)[O-])cc2)c(=O)n1-c1ccccc1Cl | -17.8 | 0.082 µM [falling, full curve, poor fit] | –
CN(CC(=O)Nc1ccc(Cl)cc1)C(=O)CCc1nc2sc3c(c2c(=O)[nH]1)CCCC3 | -45.6 | 29.1 µM [falling, single point] | 29.1 µM [falling, single point]
COc1ccc(-c2nnn(CC(=O)c3c[nH]c4ccccc34)n2)cc1OC | -37.5 | 2.31 µM [rising, full curve] | –
CCOc1ccc(-c2c(C(=O)N/N=C/c3ccncc3)nnn2-c2nonc2N)cc1 | -8.06 | 3.66 µM [rising, single point] | –
COC(=O)c1cc(NC(=O)C2C3C=CC(C3)C2C(=O)O)cc(C(=O)OC)c1 (stereo not given) | -2.32 | 0.231 µM [falling, full curve, poor fit] | –
Cc1ccnc(NC(=O)Nc2ccc(F)cc2)c1 | -7.4 | – | –
Nc1[nH]n2c(=O)c3c(nc2c1N=Nc1ccccc1)CCCC3 | -19.8 | – | –
CCOc1ccc(-c2nc(C#N)c(N3CCOCC3)o2)cc1 | – | 6.51 µM [rising, single point] | –
Cc1oc(-c2cccc(Cl)c2)nc1CS(=O)(=O)CC(=O)NCc1ccco1 | – | 3.66 µM [rising, partial curve] | –
COc1cc(/C=C(\C#N)C(=O)NCc2ccccc2)ccc1OCc1ccc(C(=O)O)cc1 | -12 | – | –

SMILES | cell number change [%] | AC50 [1] | AC50 [2]
O=C(Nc1cccc(F)c1)C1C2C=CC3(CN(CCCN4CCOCC4)C(=O)C13)O2 (stereo not given) | 15.7 | 23.1 µM [falling, single point] | –
COc1cc(C(=O)Nc2nnc(C)s2)c([N+](=O)[O-])cc1OC | -13.7 | 0.00461 µM [falling, full curve, poor fit] | –
Cc1ccc2cc(C(c3nnnn3C3CCCC3)N(Cc3ccco3)Cc3cccs3)c(=O)[nH]c2c1 (stereo not given) | 55.8 | – | –
COc1cc(NC(=O)C/C(C)=N/NC(=O)c2ccccn2)c(OC)cc1Cl | 11.5 | 20.6 µM [rising, partial curve] | –
CCc1ccccc1N(C(C)=O)c1nc(CCl)cs1 | -0.0937 | 0.82 µM [rising, single point] | –
Cc1cccc(NC(=O)C2CCN(S(=O)(=O)c3ccc4ccccc4c3)CC2)n1 | 5.49 | – | –
CN(C)CCCNC(=O)/C=C/c1ccc2c(c1)OCO2 | 4.4 | – | –
O=C(N/N=C\c1ccc(OC(=O)c2cccs2)cc1)c1ccc(Cl)cc1 | -3.17 | 0.00517 µM [falling, full curve, poor fit] | –
CC(=O)c1ccc(Oc2cc(C)nc(N3CCOCC3)n2)cc1 | -16.7 | 23.1 µM [rising, single point] | 0.651 µM [falling, full curve, poor fit]
CN(CC(=O)NC1CCCCCC1)S(=O)(=O)c1ccc(Br)cc1 | 15.1 | 5.8 µM [rising, partial curve] | –
CC(=O)Nc1ccc(S(=O)(=O)NCc2cccnc2)cc1 | -17.1 | 0.411 µM [falling, full curve] | 0.651 µM [falling, full curve, poor fit]
CS(=O)(=O)N(CC(=O)N1CCOCC1)c1ccc2c3c(cccc13)CC2 | -24.5 | 29.1 µM [falling, single point] | –
Cc1ccc(C(C)NC(=O)c2ccncc2)c(C)c1 (stereo not given) | -37.8 | 29.1 µM [falling, single point] | –
COc1cccc(CNC(=O)CN2C(=O)CSc3ccc(S(=O)(=O)N4CCCC4)cc32)c1 | -10.5 | 0.651 µM [falling, single point] | –
CCN1CCc2c(C#N)c(NCc3ccccc3)nc(N(CC)CC)c2C1 | -33.2 | 20.6 µM [falling, single point] | 29.1 µM [falling, single point]
CC/C(=N\NC(=O)OC)c1ccc(OC(F)F)cc1 | – | – | 0.0731 µM [rising, partial curve, poor fit]
COc1ccc(C2C(=O)N(C3CCCCC3)CC(=O)N2C2CCCCC2)cc1 (stereo not given) | – | – | 0.58 µM [falling, full curve]
O=C(Nc1cccc(NC(=O)c2sc3ccccc3c2Cl)c1)c1ccco1 | -6.77 | – | –
CCc1ccc(OC)c(S(=O)(=O)N2CCN(C(=O)c3ccco3)CC2)c1 | -11.9 | – | –
O=C(Nc1ccc(F)cc1)c1nc[nH]c1C(=O)Nc1ccc([N+](=O)[O-])cc1 | 1.65 | 1.64 µM [falling, partial curve] | –
CCCCNC(=O)c1ccc(CNS(=O)(=O)c2ccc(Br)cc2)cc1 | 50.6 | – | –

Four successive records from above, quoted:
SMILES | cell number change [%] | AC50 [1] | AC50 [2]
Cc1ccc(C(C)NC(=O)c2ccncc2)c(C)c1 (stereo not given) | -37.8 | 29.1 µM [falling, single point] | –
COc1cccc(CNC(=O)CN2C(=O)CSc3ccc(S(=O)(=O)N4CCCC4)cc32)c1 | -10.5 | 0.651 µM [falling, single point] | –
CCN1CCc2c(C#N)c(NCc3ccccc3)nc(N(CC)CC)c2C1 | -33.2 | 20.6 µM [falling, single point] | 29.1 µM [falling, single point]
CC/C(=N\NC(=O)OC)c1ccc(OC(F)F)cc1 | – | – | 0.0731 µM [rising, partial curve, poor fit]

(listing goes on)

SMILES | cell number change [%] | AC50 [1] | AC50 [2]
O=C(OCC(=O)N1CCCC1=O)c1cc(S(=O)(=O)N2CCOCC2)ccc1F | -26.2 | 29.1 µM [falling, single point] | –
Cn1c(SCC(=O)c2ccccc2)nnc1-c1ccncc1 | -13 | 29.1 µM [rising, single point] | –
COc1ccc(NS(=O)(=O)/C=C/c2ccc(OC)c(OC)c2)cc1 | 31.9 | 29.1 µM [rising, single point] | 29.1 µM [rising, single point]
COC(=O)[C@H](Cc1ccccc1)NC(=O)N(C)Cc1ccccc1 | -31.2 | 0.731 µM [falling, full curve, poor fit] | –
CC(=O)c1ccc(S(=O)(=O)NCc2cccnc2)cc1 | – | – | 0.82 µM [rising, full curve, poor fit]
COc1ccc(Cc2nnc3c4cnn(C)c4ncn23)cc1 | 10 | – | –
CN1C(=S)SC(/[N+]([O-])=C\c2ccco2)C1(C)C (stereo not given) | 2.81 | – | –
CCN1CCN(C(=O)c2ccc(N3CC4CC(C3)c3cccc(=O)n3C4)c(NC(=O)c3cc(OC)cc(OC)c3)c2)CC1 (stereo not given) | 6.26 | 6.51 µM [rising, single point] | –
O=C(Nc1ccc(N2CCN(C(=O)c3ccc(Cl)cc3)CC2)cc1)c1cc2ccccc2o1 | -21.6 | 23.1 µM [falling, single point] | –
COc1ccc(N2CCN(C(=O)c3cn(Cc4ccccc4)nc3-c3cccnc3)CC2)cc1 | -11.4 | – | –
O=C(NC(=S)Nc1ccc(N2CCOCC2)cc1)c1cccs1 | -27.5 | 18.4 µM [falling, partial curve, poor fit] | –
COc1cccc(NS(=O)(=O)c2ccc(OC)c(OC)c2)c1 | -12.7 | 13 µM [rising, single point] | –
COc1cccc(NC(=O)COC(=O)c2c(C)noc2C)c1 | 7.27 | 5.8 µM [rising, full curve] | 0.00517 µM [falling, full curve, poor fit]
COc1ccc(C(F)(F)F)cc1N/C=C/c1nnnn1-c1ccc2ccccc2c1 | 22.5 | 29.1 µM [rising, single point] | –
N#CCc1nc(CSc2nc3ccccc3s2)cs1 | – | 5.8 µM [rising, single point] | 6.51 µM [rising, single point]
CC(C)OCCCNC(=O)c1ccccc1Oc1ccccc1 | 11.2 | 29.1 µM [rising, single point] | –
Cc1ccnc(NC(=O)c2ccc3c(c2)C(=O)N(CC2CCCO2)C3=O)c1 (stereo not given) | -12.7 | – | 1.64 µM [falling, single point]
C=CCn1c(C)nc2c(cnn2-c2ccccc2)c1=O | 36.8 | 2.59 µM [falling, partial curve, poor fit] | 32.6 µM [rising, single point]
O=C(Nc1ccc(Nc2ccccc2)cc1)c1c(F)c(F)c(F)c(F)c1F | -21.4 | 6.51 µM [falling, single point] | –
CCCS(=O)(=O)c1csc(C(=O)OC)c1N | 12.1 | 0.231 µM [rising, full curve, poor fit] | –
COc1ccc(C2(C)CC(C)(C)Nc3ccccc32)cc1 (stereo not given) | -7.66 | – | –
